Results taken from PMC11125359 (Pharmaceuticals, 2024).

Test system: human lung cancer (A549) cell line
Experiment: Cytotoxic activity, MTT assay, lung (A549)
Conditions: IC50 on normal cells (WI-38)/IC50 on A549

Structure (SMILES) | Therapeutic Index (TI), Lung (A549)
COc1ccc(Nc2n[nH]c(N=Cc3c(C)n(C)n(-c4ccccc4)c3=O)c2C(=O)Nc2ccc(Cl)cc2)cc1 [7f] | 9.73
COc1ccc(Nc2n[nH]c(N=Cc3ccc(N4CCCCC4)cc3)c2C(=O)Nc2ccc(Cl)cc2)cc1 [5f] | 8.15
COc1cccc2c1C(=O)c1c(O)c3c(c(O)c1C2=O)C[C@@](O)(C(=O)CO)C[C@@H]3O[C@H]1C[C@H](N)[C@H](O)[C@H](C)O1 [Doxorubicin, reference compound] | 8.36
O=C(Nc1ccccc1)c1c(Nc2ccccc2)n[nH]c1N=Cc1ccc(N2CCCCC2)cc1 [5a] | 6.41
COc1ccc(Nc2n[nH]c(/N=C/c3ccc(N4CCCCC4)cc3)c2C(=O)Nc2ccccc2)cc1 [5d] | 14.83
Cc1c(C=Nc2[nH]nc(Nc3ccccc3)c2C(=O)Nc2ccccc2)c(=O)n(-c2ccccc2)n1C [7a] | 14.90
COc1ccc(Nc2n[nH]c(/N=C/c3ccc(N4CCCCC4)cc3)c2C(=O)Nc2ccc(C)cc2)cc1 [5e] | 13.57
